## Library screening results

By UniProt entry, the sequences of proteins in these tests, tags left out.
UniProt E9BF75, entry or part of it: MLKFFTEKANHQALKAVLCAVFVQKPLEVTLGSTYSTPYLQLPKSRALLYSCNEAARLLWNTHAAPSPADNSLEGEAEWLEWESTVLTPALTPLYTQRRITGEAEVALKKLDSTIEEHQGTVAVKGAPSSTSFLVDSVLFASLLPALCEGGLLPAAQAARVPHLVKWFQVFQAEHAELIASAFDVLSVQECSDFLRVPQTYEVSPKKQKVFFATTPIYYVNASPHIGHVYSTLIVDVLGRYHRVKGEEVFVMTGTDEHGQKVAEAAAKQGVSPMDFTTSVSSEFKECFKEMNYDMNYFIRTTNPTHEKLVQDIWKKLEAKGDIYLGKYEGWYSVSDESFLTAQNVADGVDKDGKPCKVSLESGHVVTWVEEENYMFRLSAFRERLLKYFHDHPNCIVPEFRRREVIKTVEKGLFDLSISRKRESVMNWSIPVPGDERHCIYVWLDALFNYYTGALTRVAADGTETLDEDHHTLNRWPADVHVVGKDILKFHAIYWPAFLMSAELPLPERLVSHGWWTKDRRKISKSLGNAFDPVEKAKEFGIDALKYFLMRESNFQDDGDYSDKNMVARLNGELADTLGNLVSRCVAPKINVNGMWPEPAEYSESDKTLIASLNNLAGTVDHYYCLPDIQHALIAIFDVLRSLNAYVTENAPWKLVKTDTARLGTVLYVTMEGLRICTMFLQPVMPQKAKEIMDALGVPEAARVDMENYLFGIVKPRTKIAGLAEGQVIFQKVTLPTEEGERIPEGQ

All values are in %.
The controls that fix the scale are not given in the record; negative values are as filed.
This is an unselected part of the compounds tested.
A dash means the value is not listed here; it may have been measured.

Mtb heat-shock: 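Assay on Mycobacterium tuberculosis, filed only as a heat shock assay from Cornell; the read-out is not stated. The concentration is filed as 10 mM, unlikely as a test dose, so the dose is not known. Higher reads as stronger inhibition (inferred: compounds with an IC50 in retests scored well above the rest). Size under these conditions: about 69,000 compounds, about 930 of them at 50% or above in at least one test.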
LdMetRS: 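Primary screen of methionyl-tRNA synthetase; the read-out is not stated. Target: Methionyl-tRNA synthetase (putative), Leishmania donovani (UniProt E9BF75). The test concentration is not given. Values are per cent inhibition. Size under these conditions: about 68,000 compounds, about 24 of them at 50% or above in at least one test.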
Mtb growth Cornell: 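Whole-cell assay for inhibitors of Mycobacterium tuberculosis growth, labelled Cornell in the record; the read-out is not stated. The concentration is filed as 10 mM, unlikely as a test dose, so the dose is not known. Higher means stronger inhibition (inferred from two other growth screens of the library). Size under these conditions: about 53,000 compounds, about 900 of them at 50% or above in at least one test.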

SMILES	Mtb heat-shock	LdMetRS	Mtb growth Cornell
O=C(O)c1cncc(Cc2ccc(F)cc2)c1	15.64	17.09	8.566
Cc1ncsc1CN1CC[C@H]2OCC[C@@]2(C(=O)N2CCOCC2)C1	-	10.64	-
CS(=O)(=O)CCN1CCC2(CCCN(C3CCOCC3)C2=O)C1 (centres unmarked)	-1.167	13.5	-3.457
Cc1cncc(Oc2ccc(CN)cc2)n1	3.08	10.24	15.2
COCCCN(CCOC)C(=O)Nc1ccc(C)cc1C	-5.268	1.408	-5.189
Cc1cs/c(=N\C(=O)Cn2nc(N3CCSCC3)ccc2=O)[nH]1	-11.23	10.72	6.494
Cc1nn(C)c(C)c1C(=O)N1CCN(C(=O)CC2CCCCC2)CC1	-13.09	9.581	-12.72
N#Cc1ccc(F)c(CNC(=O)NC(CO)Cc2ccccc2)c1 (centres unmarked)	-0.2813	8.01	20.45
O=C(O)C(F)(F)F.O=C(O)C(F)(F)F.[H][C@@]12CCC(=O)N(Cc3cccc(C)n3)[C@]1([H])CCN2Cc1ccc(F)cc1	-4.361	-	20.13
Cc1nc(C)c(CCNC(Cc2ccncc2)C(F)(F)F)s1 (centres unmarked)	-6.176	10.99	11.47
CS(=O)(=O)c1cc(NC(=O)COc2ccccc2F)cc(C(=O)O)c1	-12.45	13.45	14.2
Cc1cccc(CN2C(=O)CC[C@@H]3[C@H]2CCN3CC2CCOCC2)n1	-	13.59	-
O=C(C1COCCO1)N1CCN(Cc2ccc3c(c2)CCO3)CC1 (centres unmarked)	-26.32	8.661	4.205
COc1ccccc1C(=O)N1Cc2cc(C)ccc2OCC1CN(C)C.Cl (centres unmarked)	6.199	-	14.34
CC(C)CNC(=O)c1ccc2c(c1)nc1n2CCN(Cc2ccco2)C1	-10.55	18.7	4.857
CC(C)CNc1c(NCc2ccco2)c(=O)c1=O	5.171	14.36	0.8033
Cc1cccc(N2CCc3ncc(CNS(C)(=O)=O)n3CC2)n1	-	9.137	-
COCC[C@]1(O)CCN(CC(=O)NCc2ccccc2C)C[C@H]1C	12.53	9.244	-
CC(C)=CCNC1CCCN(c2ccc(C)nn2)C1 (centres unmarked)	2.794	16.85	-
CCc1nnc2ccc(NCC3(O)CCOCC3)nn12	-6.854	6.767	-
O=C(N1CCCC(n2cncn2)C1)C1(c2cccc(F)c2)CCC1 (centres unmarked)	-14.05	9.777	19.65
CCc1cnc(N2CC3(CCN(C(=O)c4ccoc4)C3)C2)nc1	-14.11	7.087	8.633
COc1c(C2CCCN2C(=O)c2cccn2C)c(C)nn1C (centres unmarked)	-12.3	11.71	-7.467
O=C(O)C(F)(F)F.[H][C@@]12CCCO[C@]1([H])[C@H](NC(=O)c1cnccn1)CN(c1ncccn1)C2	-10.26	-	37.35
Cc1cnn(CC2CC2)c1NC(=O)c1cccnc1O	-19.63	12.37	-10.07
Cn1nc(-c2ccc(Cl)cc2)c(Br)c1C(=O)O	-19.99	0.303	-3.103
CCc1n[nH]c(C2CN(C(=O)c3cnn(CC)c3)CCO2)n1 (centres unmarked)	-12.67	6.63	-
Cc1ccc(CN(CCCN2CCOCC2)Cc2cnc(C)n2C)o1	-	7.097	-
Cc1cc(C)n(CC2CN(Cc3cnc(C)s3)CCO2)n1 (centres unmarked)	-38.39	11.05	-
COc1ccc(-c2cc(CC3(NCc4ccc(C)o4)COC3)no2)cc1	-20.72	3.051	6.816
CC(=O)N1CCN(c2cc(-n3cccc3)ncn2)CC1	-2.748	-1.199	16.91
Cc1cnn(CC(C)NCc2nc(-c3ccccn3)no2)c1 (centres unmarked)	-11.38	11.61	15.99
Cc1cccc(S(=O)(=O)N2C[C@@H]3C[C@@H](c4nnc(C)[nH]4)O[C@@H]3C2)c1	-	14.29	-
COc1c(NS(=O)(=O)c2ccc(F)c(C)c2)c(C)nn1C	-11.91	-	-
CCCc1nc(N(C)CCN2CCCCCC2)c2cnn(C)c2n1	24.2	32.88	16.15
Cc1nc(NCc2cccnc2)c2c(n1)c(C)nn2C	15.35	14.96	13.17
Cc1cccc(C2(C(=O)NCCCn3cccn3)CC2)c1	6.797	10.34	0.3748
Cc1nnc(NC(=O)CN2CCCC(Cn3cncn3)C2)s1 (centres unmarked)	2.027	20.98	-
COC(=O)c1ccc(CNC(=O)Nc2ccc(=O)n(C)c2)cc1	23.44	10.28	6.268

The values are deposited in ChEMBL (CHEMBL3988442, “University of Dundee, Small-Polar-MMV Screening Library” (2021)).